Assay results as given in the supplement of paper PMC12823440, “Inhibitors supercharge kinase turnover through native proteolytic circuits” (Nature, 2025).
The other results are listed elsewhere or left out. Hit calls seldom repeat between salt and free forms of one compound.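 Kinases were expressed as nanoluciferase fusions in K562 cells and luminescence was read every 4 h between 2 and 18 h as percent of control, DMSO set to 100% and a positive control to 0%. A time point counts as decreased when the signal drops significantly (2 sigma). The hit call is the authors' own, does not follow from the count of time points alone, and its rule is not shown.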

Sequences of proteins named here, by UniProt entry; tags and fusion partners are left off.
UniProt P00519, whole entry: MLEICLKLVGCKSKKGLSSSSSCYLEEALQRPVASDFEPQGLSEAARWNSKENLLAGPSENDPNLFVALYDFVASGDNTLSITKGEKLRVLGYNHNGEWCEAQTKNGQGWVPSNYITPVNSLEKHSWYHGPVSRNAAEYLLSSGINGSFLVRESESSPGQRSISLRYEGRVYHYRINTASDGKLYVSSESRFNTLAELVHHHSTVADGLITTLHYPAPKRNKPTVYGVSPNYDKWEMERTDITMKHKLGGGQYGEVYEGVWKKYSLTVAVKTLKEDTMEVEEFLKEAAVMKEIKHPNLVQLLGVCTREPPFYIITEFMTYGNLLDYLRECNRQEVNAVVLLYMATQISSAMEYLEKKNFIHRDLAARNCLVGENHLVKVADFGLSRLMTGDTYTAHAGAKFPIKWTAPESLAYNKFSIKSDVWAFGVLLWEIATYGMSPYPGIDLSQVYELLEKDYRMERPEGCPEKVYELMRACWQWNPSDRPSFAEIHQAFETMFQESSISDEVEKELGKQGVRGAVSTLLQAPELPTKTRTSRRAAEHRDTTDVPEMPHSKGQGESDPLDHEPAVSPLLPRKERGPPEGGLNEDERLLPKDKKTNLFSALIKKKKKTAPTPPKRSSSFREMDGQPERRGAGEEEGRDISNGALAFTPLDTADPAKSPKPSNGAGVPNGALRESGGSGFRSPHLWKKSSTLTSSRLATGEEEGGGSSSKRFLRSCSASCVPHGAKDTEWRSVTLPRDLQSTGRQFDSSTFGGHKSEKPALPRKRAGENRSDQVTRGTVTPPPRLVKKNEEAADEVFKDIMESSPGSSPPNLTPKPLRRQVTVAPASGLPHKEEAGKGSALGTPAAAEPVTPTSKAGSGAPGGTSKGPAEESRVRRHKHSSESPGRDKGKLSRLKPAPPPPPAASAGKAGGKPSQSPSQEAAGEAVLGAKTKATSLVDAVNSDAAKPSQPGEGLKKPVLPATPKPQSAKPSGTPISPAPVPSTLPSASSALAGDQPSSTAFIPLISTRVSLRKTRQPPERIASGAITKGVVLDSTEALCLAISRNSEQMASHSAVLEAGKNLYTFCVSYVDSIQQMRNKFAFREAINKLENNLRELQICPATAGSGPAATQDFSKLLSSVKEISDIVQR

target: ABL1 (UniProt P00519); assay: kinase-Nluc reporter destabilization hit call (1 = scored as downregulated) (binary); higher = compound decreases kinase abundance; details: K562; 2-18 h

kinase-Nluc reporter destabilization hit call, inactive:
CC(C)CCN1c2nc(Nc3cc(F)c(O)c(F)c3)ncc2N(C)C(=O)C1C (stereo not given) (2.5 µM) 0
CC(C)=CC[C@@H](O)C1=CC(=O)c2c(O)ccc(O)c2C1=O [Shikonin] (10 µM) 0
CCC(=O)Nc1cccc(Oc2nc(Nc3ccc(N4CCN(C)CC4)cc3OC)ncc2Cl)c1 (10 µM) 0
CC(C)=CCC/C(C)=C/CC/C(C)=C/C=C/C(C)=C/C(=O)O [Peretinoin] (10 µM) 0
COc1ccc2c(Oc3ccc4c(C(=O)Nc5ccccc5N)cccc4c3)ccnc2c1 [Chiauranib] (10 µM) 0
Cc1nn(C)cc1-c1nc2c(N3CCN(Cc4ccc(Cl)cc4)CC3)c(Cl)cnc2[nH]1 (10 µM) 0
CNC(=O)c1cc2c(Oc3ccc(NC(=O)C4(C(=O)Nc5ccc(F)cc5)CC4)cc3)ccnc2cc1OC (2.5 µM) 0
O=C(Nc1cccnc1)c1cc(-c2ccnc(F)c2)ccc1OCc1ccccc1 (10 µM) 0
CN(C)c1ccc(-c2nc3ncc(Cl)c(N4CCN(CC(=O)Nc5nccs5)CC4)c3[nH]2)cc1 (2 µM) 0
Cc1cc(C(=O)NC(C)(C)C)cc(C#Cc2ccc3c4c(oc3c2)C(C)(C)c2cc(NS(C)(=O)=O)ccc2C4=O)n1 (10 µM) 0
O=C(O)c1cc(N(Cc2ccccc2O)Cc2cc(O)ccc2O)ccc1O [Lavendustin A] (10 µM) 0
C[C@@H](Nc1ncnc2[nH]c(-c3ccc(O)cc3)cc12)c1ccccc1 (2.5 µM) 0
O=C(O)c1ccc(/C=C/S(=O)(=O)Cc2ccc(Cl)cc2)cc1 [Recilisib] (10 µM) 0
Nc1nc(NCCNc2ncc(-n3ccnc3)c(-c3ccc(Cl)cc3Cl)n2)ccc1[N+](=O)[O-] (2.5 µM) 0
Cc1cnc(NC(=O)c2cc(Oc3cnc(C(=O)N(C)C)nc3)c3cc(C)oc3c2)cn1 (10 µM) 0
CNC(=O)CNc1cnc2ccc(-c3ccc(OC)c(OC)c3)cc2n1 (10 µM) 0
N[C@@H]1CCCN(c2c(/C=C3\SC(=O)NC3=O)cccc2-c2ccccc2)C1 (10 µM) 0
CO[C@H]1C[C@@H]2CC[C@@H](C)[C@@](O)(O2)C(=O)C(=O)N2CCCC[C@H]2C(=O)O[C@H]([C@H](C)C[C@@H]2CC[C@@H](OC(=O)C(C)(CO)CO)[C@H](OC)C2)CC(=O)[C@H](C)/C=C(\C)[C@@H](O)[C@@H](OC)C(=O)[C@H](C)C[C@H](C)/C=C/C=C/C=C/1C [Temsirolimus] (2.5 µM) 0
COc1cc2nccc(Oc3ccc(NC(=O)c4cn(C(C)C)c(=O)n(-c5ccc(F)cc5)c4=O)cc3F)c2cc1OC (0.5 µM) 0
C=C1CCC[C@]2(C)C=C3OC(=O)C(C)=C3C[C@@H]12 [Atractylenolide I] (10 µM) 0
C=CC(=O)Nc1cc(Nc2nccc(-c3cn(C)c4ccccc34)n2)c(OC)cc1OCCN(C)C [Rezivertinib] (2.5 µM) 0
C=C1C(=O)[C@@]23[C@H](O)C[C@@H]4C(C)(C)C(=O)CC[C@@]4(C)[C@@H]2CC[C@@H]1[C@H]3O [Glaucocalyxin A] (2.5 µM) 0
NC1(C(=O)NCCCn2cc(-c3ccc(OC(F)(F)F)cc3)c3cc(CN4CCN(Cc5c(Cl)cccc5Cl)CC4)ccc32)CCNCC1 (2.5 µM) 0
CC(Sc1nc2c(cnn2-c2cccc(Cl)c2)c(=O)[nH]1)C(N)=O (stereo not given) (10 µM) 0
Fc1ccc2[nH]ccc2c1-c1nc(N2CCOCC2)c2sc(CN3CCN(CC4CC4)CC3)cc2n1 (10 µM) 0
Cn1cc(-c2cc(Oc3cc(F)c(NC(=O)C4(C(=O)Nc5ccccc5)CC4)cc3F)ccn2)cn1 (2.5 µM) 0
COc1ccc(S(=O)(=O)Nc2cc(-c3c(O)ccc4ccccc34)c(O)c3ccccc23)cc1 (10 µM) 0
Cn1c2cc([S+](C)[O-])sc2c2cnn(Cc3cccc(N)c3)c(=O)c21 (stereo not given) (2.5 µM) 0
O=C(NCCO)c1cc(C(=O)NCCO)cc(C(=O)NCCO)c1 (10 µM) 0
N#Cc1cnc2c(Cl)cc(NCc3cn(CCN4CCCCCC4)nn3)cc2c1Nc1ccc(F)c(Cl)c1 [Cot inhibitor-1] (10 µM) 0

For convenience, part of the list above.
kinase-Nluc reporter destabilization hit call, inactive:
O=C(O)c1cc(N(Cc2ccccc2O)Cc2cc(O)ccc2O)ccc1O [Lavendustin A] (10 µM) 0
C[C@@H](Nc1ncnc2[nH]c(-c3ccc(O)cc3)cc12)c1ccccc1 (2.5 µM) 0
